The labels stand for the following.
B1: PPP6C (enzyme, UniProt O00743 1-305)
chain: MAPLDLDKYVEIARLCKYLPENDLKRLCDYVCDLLLEESNVQPVSTPVTVCGDIHGQFYDLCELFRTGGQVPDTNYIFMGDFVDRGYYSLETFTYLLALKAKWPDRITLLRGNHESRQITQVYGFYDECQTKYGNANAWRYCTKVFDMLTVAALIDEQILCVHGGLSPDIKTLDQIRTIERNQEIPHKGAFCDLVWSDPEDVDTWAISPRGAGWLFGAKVTNEFVHINNLKLICRAHQLVHEGYKFMFDEKLVTVWSAPNYCYRCGNIASIMVFKDVNTREPKLFRAVPDSERVIPPRTTTPYFL
B2: SRSF7 (endogenous) (protein, UniProt Q16629 1-238)
chain: MSRYGRYGGETKVYVGNLGTGAGKGELERAFSYYGPLRTVWIARNPPGFAFVEFEDPRDAEDAVRGLDGKVICGSRVRVELSTGMPRRSRFDRPPARRPFDPNDRCYECGEKGHYAYDCHRYSRRRRSRSRSRSHSRSRGRRYSRSRSRSRGRRSRSASPRRSRSISLRRSRSASLRRSRSGSIKGSRYFQSPSRSRSRSRSISRPRSSRSKSRSPSPKRSRSPSGSPRRSASPERMD
B3: SRSF3 (endogenous), P84103 1-164 (protein)
chain: MHRDSCPLDCKVYVGNLGNNGNKTELERAFGYYGPLRSVWVARNPPGFAFVEFEDPRDAADAVRELDGRTLCGCRVRVELSNGEKRSRNRGPPPSWGRRPRDDYRRRSPPPRRRSPRRRSFSRSRSRSLSRDRRRERSLSRERNHKPSRSFSRSRSRSRSNERK

Sequences of proteins named here, by UniProt entry; tags and fusion partners are left off.
UniProt P62140: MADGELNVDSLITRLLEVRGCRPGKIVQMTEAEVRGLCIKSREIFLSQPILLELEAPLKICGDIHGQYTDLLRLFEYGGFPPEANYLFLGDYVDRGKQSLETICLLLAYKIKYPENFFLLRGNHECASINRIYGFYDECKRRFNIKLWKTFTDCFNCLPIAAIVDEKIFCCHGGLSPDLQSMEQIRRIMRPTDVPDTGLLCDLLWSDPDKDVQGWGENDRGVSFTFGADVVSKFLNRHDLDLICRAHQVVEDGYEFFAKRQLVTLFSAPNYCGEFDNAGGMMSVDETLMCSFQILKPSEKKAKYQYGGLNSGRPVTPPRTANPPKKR
UniProt P17844: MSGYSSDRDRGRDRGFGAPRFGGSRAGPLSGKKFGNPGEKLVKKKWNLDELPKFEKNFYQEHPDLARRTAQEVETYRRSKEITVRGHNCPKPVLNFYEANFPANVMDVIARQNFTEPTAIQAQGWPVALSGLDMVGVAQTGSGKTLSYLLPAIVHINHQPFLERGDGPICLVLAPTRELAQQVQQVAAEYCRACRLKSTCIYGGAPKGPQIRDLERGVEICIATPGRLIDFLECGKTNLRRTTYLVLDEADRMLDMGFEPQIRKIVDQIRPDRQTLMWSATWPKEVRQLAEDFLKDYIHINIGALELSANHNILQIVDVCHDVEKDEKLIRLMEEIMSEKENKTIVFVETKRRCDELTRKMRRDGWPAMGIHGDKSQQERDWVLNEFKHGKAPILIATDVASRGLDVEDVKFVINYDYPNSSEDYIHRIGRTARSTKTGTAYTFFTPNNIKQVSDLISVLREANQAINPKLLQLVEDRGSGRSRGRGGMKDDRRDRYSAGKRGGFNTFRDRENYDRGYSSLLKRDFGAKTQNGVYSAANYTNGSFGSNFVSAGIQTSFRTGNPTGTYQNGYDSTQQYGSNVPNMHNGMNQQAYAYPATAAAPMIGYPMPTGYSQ
UniProt P38159: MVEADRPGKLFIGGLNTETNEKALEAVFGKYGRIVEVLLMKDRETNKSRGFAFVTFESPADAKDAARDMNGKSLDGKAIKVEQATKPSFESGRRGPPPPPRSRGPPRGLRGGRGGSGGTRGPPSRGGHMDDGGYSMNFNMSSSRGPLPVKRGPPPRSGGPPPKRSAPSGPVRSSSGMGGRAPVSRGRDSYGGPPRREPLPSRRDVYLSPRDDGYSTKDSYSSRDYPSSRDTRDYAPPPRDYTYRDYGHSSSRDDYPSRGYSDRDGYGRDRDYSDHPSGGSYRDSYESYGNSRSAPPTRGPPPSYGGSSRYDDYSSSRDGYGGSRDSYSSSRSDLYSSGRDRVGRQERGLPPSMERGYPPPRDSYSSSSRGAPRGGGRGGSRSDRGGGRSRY
UniProt Q07955: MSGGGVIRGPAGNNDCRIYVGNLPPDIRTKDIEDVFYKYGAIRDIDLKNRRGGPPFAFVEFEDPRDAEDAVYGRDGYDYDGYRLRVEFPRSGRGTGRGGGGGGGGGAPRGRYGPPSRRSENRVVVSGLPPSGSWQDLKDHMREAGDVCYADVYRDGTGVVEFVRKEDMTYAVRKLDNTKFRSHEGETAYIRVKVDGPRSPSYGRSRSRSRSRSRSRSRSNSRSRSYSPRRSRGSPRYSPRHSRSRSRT
UniProt O43143: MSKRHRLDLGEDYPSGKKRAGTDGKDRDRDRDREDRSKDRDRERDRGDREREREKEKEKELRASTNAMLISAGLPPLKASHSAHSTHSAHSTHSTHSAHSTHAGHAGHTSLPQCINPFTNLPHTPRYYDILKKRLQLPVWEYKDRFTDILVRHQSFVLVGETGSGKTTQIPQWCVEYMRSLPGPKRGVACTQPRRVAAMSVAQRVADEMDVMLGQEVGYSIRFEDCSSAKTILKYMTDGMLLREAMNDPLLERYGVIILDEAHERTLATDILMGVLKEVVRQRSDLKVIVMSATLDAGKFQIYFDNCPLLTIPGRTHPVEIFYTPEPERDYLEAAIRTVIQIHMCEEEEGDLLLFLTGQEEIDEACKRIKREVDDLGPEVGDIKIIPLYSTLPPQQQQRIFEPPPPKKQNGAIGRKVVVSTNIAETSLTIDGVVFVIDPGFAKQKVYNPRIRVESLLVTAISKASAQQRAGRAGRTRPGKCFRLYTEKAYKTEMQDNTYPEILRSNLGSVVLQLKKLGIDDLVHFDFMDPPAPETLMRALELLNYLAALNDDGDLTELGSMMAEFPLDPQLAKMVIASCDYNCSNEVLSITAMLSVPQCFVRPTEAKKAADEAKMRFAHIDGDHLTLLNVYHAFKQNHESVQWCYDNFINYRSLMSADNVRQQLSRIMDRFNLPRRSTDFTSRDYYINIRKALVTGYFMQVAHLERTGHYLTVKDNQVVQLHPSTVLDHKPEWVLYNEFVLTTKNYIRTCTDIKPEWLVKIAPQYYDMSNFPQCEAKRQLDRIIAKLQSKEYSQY
UniProt Q99459: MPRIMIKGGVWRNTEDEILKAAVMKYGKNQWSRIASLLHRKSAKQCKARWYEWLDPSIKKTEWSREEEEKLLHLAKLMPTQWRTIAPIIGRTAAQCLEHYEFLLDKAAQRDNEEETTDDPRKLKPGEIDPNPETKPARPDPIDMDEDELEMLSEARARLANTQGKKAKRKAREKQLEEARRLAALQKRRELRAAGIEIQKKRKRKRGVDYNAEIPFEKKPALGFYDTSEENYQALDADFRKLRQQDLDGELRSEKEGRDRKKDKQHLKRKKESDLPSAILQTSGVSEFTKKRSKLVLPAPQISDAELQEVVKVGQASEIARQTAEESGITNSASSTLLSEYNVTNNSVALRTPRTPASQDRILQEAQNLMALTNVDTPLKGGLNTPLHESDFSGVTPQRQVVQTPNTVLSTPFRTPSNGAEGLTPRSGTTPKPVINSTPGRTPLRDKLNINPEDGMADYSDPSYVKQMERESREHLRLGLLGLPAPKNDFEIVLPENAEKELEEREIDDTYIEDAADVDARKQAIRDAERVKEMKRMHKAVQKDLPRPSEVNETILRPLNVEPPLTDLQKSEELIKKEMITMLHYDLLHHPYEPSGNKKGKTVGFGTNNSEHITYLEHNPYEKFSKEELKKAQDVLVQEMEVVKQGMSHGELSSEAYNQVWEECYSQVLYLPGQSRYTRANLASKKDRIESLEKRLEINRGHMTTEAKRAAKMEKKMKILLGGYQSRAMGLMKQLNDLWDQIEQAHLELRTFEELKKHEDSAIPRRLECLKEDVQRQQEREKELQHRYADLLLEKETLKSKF
UniProt P26599: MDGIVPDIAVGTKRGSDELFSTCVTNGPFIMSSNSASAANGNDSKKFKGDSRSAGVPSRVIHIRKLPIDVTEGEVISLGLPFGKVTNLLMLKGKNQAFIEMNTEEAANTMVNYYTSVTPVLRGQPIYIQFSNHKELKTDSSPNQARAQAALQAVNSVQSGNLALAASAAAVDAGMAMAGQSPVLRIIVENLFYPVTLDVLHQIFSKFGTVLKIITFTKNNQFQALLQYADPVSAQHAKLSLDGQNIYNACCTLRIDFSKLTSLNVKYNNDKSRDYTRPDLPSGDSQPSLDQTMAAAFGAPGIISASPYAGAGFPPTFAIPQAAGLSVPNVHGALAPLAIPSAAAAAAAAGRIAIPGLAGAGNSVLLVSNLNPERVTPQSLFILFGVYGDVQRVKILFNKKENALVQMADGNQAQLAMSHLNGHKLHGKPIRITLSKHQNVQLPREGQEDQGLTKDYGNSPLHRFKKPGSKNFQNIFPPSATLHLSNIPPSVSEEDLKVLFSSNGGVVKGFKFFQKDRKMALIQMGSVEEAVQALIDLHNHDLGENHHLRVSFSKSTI

No constants are given. Whether binding was seen depends on the method and setting. In cells and extracts the contact can be indirect. A yes stands for co-enrichment or nearness to the bait. Other partners may have been found. For some assays here: Sequences can lack the tags named with a protein.

The target of one experiment is GFP-tagged version of human Aurora-A (human) (UniProt O14965). As to the kind of experiment: affinity purification with mass spectrometry.
Conditions: not given
B1: the binding result is reported as “binds”.

As to B2, the binding entry is recorded as “binds”.

For another experiment the target is unchanged. Nature of the experiment: affinity purification with mass spectrometry.
Conditions: not given
This is another data set of the same source.
As for “PPP1CB (from UniProt P62140 1-327) (enzyme)”, the binding result is recorded as “binds”.

For “DDX5 (from UniProt P17844 1-614) (enzyme)”, the binding entry was “binds”.

RBMX (from UniProt P38159 1-391): the binding result is recorded as “binds”.

For the molecule “SRSF1 (endogenous) (from UniProt Q07955 1-248)”, the binding result was “binds”.

For the molecule “DHX15 (from UniProt O43143 1-795) (enzyme)”, the binding result was “binds”.

As for CDC5L (from UniProt Q99459 1-802), the binding entry is recorded as “binds”.

Consider “PTBP1 (endogenous) (from UniProt P26599 1-557)”, for which the binding entry is “binds”.

Take HNRNPK (from UniProt P61978 1-463): the binding entry was “binds”.

The next experiment has as its target T1, GFP-tagged version of human Aurora-A (human), O14965.
T1 chain: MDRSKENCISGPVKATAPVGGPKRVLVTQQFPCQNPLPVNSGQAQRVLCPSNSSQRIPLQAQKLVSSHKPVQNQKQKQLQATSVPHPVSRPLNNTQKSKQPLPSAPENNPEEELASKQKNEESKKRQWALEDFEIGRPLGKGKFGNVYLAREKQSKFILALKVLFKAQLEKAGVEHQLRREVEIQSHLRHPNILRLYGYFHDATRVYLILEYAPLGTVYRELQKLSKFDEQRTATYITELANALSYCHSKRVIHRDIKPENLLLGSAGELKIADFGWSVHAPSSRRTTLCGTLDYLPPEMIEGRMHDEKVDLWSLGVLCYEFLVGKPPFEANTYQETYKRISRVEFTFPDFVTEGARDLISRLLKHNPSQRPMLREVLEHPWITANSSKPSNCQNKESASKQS
Nature of the experiment: affinity purification with mass spectrometry. As to conditions: remark: other sources report otherwise.
With B3, the binding result is recorded as “binds”.

The record behind these values is doi:10.1101/2020.11.04.368498.
